{
  "sequences": {"note": "The chains behind the UniProt entries cited, without tags or fusion partners.", "UniProt Q8VSC3": "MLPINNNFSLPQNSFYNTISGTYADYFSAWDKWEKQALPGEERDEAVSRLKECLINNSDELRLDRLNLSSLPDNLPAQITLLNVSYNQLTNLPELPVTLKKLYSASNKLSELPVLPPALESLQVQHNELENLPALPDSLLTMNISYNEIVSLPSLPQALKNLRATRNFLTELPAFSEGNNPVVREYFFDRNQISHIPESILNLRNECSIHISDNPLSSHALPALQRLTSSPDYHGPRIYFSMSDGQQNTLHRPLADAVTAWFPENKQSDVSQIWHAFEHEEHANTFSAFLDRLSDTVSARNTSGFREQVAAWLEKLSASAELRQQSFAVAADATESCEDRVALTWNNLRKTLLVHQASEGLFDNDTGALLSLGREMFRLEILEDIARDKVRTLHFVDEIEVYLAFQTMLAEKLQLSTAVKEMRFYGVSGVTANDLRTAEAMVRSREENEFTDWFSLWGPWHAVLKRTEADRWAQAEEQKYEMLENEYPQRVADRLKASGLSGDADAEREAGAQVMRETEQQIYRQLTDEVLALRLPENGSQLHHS", "UniProt P61960": "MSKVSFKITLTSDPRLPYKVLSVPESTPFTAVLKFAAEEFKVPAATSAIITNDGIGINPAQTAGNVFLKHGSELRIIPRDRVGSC"},
  "source": "paper doi:10.1101/2025.05.29.656827",
  "molecular_target": "Myc-IpaH9.8 (pRK5Myc-IpaH9.8) (S. flexneri) (UniProt Q8VSC3)",
  "experiment": "co-IP; HEK293T co-transfected with pRK5Myc-IpaH9.8 and pCR3.1His-UFM1 (or His-UFM1 alone as control); lysis in 2% SDS, 10% glycerol, 62.5 mM Tris pH 6.8, diluted with 4 volumes of IP buffer (50 mM Tris pH 8.0, 150 mM NaCl, 1% NP-40); anti-Myc antibody and Protein A agarose",
  "note": "Results are given in words; binding and its absence hold for the method and conditions named. In cells and extracts the contact can be indirect. Some binding calls cover weakened binding; strength is not graded here.",
  "data": [
    {"substance": "His-UFM1 (pCR3.1His-UFM1) (from UniProt P61960 1-85)", "values": [
      {"measurement": "binding", "value": "binds"}
    ]}
  ]
}
